Reference: paper PMC12195615, “In Vitro and In Silico Assessments of Curcuminoids and Turmerones from Curcuma longa as Novel Inhibitors of Leishmania infantum Arginase” (Pharmaceuticals, 2025)

System: intracellular L. infantum amastigotes
Experiment: Inhibition of intracellular amastigotes in infected RAW 264.7 macrophages
Format: cell-based, Leishmania infantum
Settings: CC50 RAW 264.7 / IC50 amastigotes
Protocol: After adhesion, the cells were incubated for 24 h in the presence of L. infantum promastigotes at a ratio of 10 parasites per macrophage at 35 °C in a 5% CO2 atmosphere. After the interaction period, the wells were washed with PBS to remove non-internalized promastigotes, and the infected macrophages were incubated for 24 h under the same conditions. […] Untreated infected macrophages served as a positive control for amastigote viability. After 48 h of treatment, the supernatant was collected, and the coverslips were stained with Panoptic. […] The IC50 was then calculated using dose–response curve regression analysis.

| SMILES | IS (intracellular L. infantum amastigotes) |
| --- | --- |
| COc1cc(/C=C/C(=O)CC(=O)/C=C/c2ccc(O)c(OC)c2)ccc1O [compound 1, curcumin] | 5.13 |
| O.O.O.O=C([O-])C(O)C(O)C(=O)[O-].O=C([O-])C(O)C(O)C(=O)[O-].[K+].[K+].[Sb].[Sb] (centres unmarked) [PAT, potassium antimony(III) tartrate hydrate, reference compound] | 1.63 |
